Measured values as given in article PMC12040169 (PLOS Biology, 2025).
The list shows a part of the results.

These compounds were tested on T1, CTL2-GFP (C. trachomatis L2/434/Bu, GFP-expressing). Details: bulk GFP, single well; 28.5 h, 10 µM; inhibitor.
T1 construct: L2/434/Bu, GFP-expressing
Set-up: species or system HeLa; Intracellular C. trachomatis growth in HeLa cells, bulk GFP fluorescence relative to DMSO

Row | Structure (SMILES) | % of control remaining
1 | CC(CN1CCN(Cc2ccccc2)CC1)N(C(=O)c1ccoc1)c1ccccn1 (stereo not drawn) [CBK074861C] | 114.506%
2 | CCn1c(SCc2cc(C)no2)nnc1C1CC1 [CBK297758] | 142.838%
3 | O=S(=O)(NCc1ccccc1)c1cccc(S(=O)(=O)NCc2ccccc2)c1 [CBK263250] | 121.273%
4 | CCN(Cc1ccccc1)C(=O)NCCc1c[nH]c2ccc(OC)cc12 [CBK155226] | 100.997%
5 | COc1ccc(OCC(O)CN2CCN(c3ccccn3)CC2)cc1 (stereo not drawn) [CBK278239C] | 100%
6 | CC(=O)Nc1ccc(-c2cncc(Nc3ccc(F)c(Cl)c3)n2)cc1 [CBK065765] | 213.64%
7 | CCS(=O)(=O)NC1CC(C)(C)Cc2c1cnn2-c1ccc(OC)cc1 (stereo not drawn) [CBK306656] | 108.673%
8 | c1csc(CNc2nccnc2-c2cccs2)c1 [CBK036602] | 92.7079%
9 | O=C(Cc1noc2ccccc12)Nc1ccc(N2CCCS2(=O)=O)cc1 [CBK304521] | 97.9146%
10 | O=[N+]([O-])c1ccc(CN2CCN(Cc3ccc4c(c3)OCO4)CC2)o1 [CBK074557] | 105.902%
11 | O=C(c1cccc2[nH]ccc12)N1CCCC2(CCN(Cc3ccccc3)C2)C1 (stereo not drawn) [CBK136887] | 157.125%
12 | CN(CC(=O)Nc1ccc(Cl)c(C(F)(F)F)c1)C(=O)c1cc(O)nc2ccccc12 [CBK295304] | 85.6407%
13 | Cc1cc(C(=O)COc2cccc(-n3cnnn3)c2)c(C)n1C(C)c1ccccc1 (stereo not drawn) [CBK295643] | 101.658%
14 | O=C(Cc1ccc(Cl)cc1Cl)Nc1ccc(-c2nnc3n2CCCCC3)cc1 [CBK296949] | 151.476%
15 | COc1ccc(-n2ncc3c2CCCN(C(=O)C2CC2)C3)cc1 [CBK284498] | 126.848%
16 | CCCN(CCC)C(=O)c1nc(C)c(C(=O)N(CCC)CCC)nc1C [CBK023232] | 158.452%
17 | CCOC(=O)C1CCN(Cn2nc(O)ccc2=O)CC1 [CBK263331] | 117.662%
18 | O=C(c1ccoc1)N1CCC2(CCCN(Cc3cc(=O)[nH]c(=O)[nH]3)C2)C1 (stereo not drawn) [CBK132823] | 148.246%
19 | COc1ccc(OC(=O)C2CCN(C(=O)CC(C)C)CC2)c([N+](=O)[O-])c1 [CBK154770] | 106.217%
20 | CNC(=O)c1cccc(NC(=O)c2cc(-c3cccnc3)cnc2NCc2ccc3c(c2)OCO3)c1 [CBK076291] | 101.529%
21 | COC(=O)c1cc(OC)c(OC)cc1NC(=S)N1CCC(C(N)=O)CC1 [CBK268507] | 140.047%
22 | O=C(c1ccc2[nH]c(=O)[nH]c2c1)N1CCC2(CCNC2)C1 (stereo not drawn) [CBK156747C] | 116.321%
23 | CS(=O)(=O)c1ccc(CN2CCOC3(CCN(C(=O)c4ccc5ccccc5c4)CC3)C2)cc1 [CBK161122A] | 82.6077%
24 | CC1Cc2cc(-c3cc4ccccn4c3)ccc2N1S(C)(=O)=O (stereo not drawn) [CBK285227] | 127.438%
25 | COc1cccc(C(=O)NCCC(=O)N2CCCC(c3ncc[nH]3)C2)c1 (stereo not drawn) [CBK306864] | 120.354%
26 | CCOC(=O)c1[nH]c2ccccc2c1NS(=O)(=O)c1ccc(C)c([N+](=O)[O-])c1 [CBK047427] | 121.402%

Row | Structure (SMILES) | % of control remaining
27 | CCOCCn1c(CN2CCCCC2)nc2c1c(=O)n(C)c(=O)n2C [CBK306028] | 153.507%
28 | CC(=O)NCC1OCCc2ccccc21 (stereo not drawn) [CBK026449] | 114.989%
29 | CC(C)(c1noc(C2CCOCC2)n1)S(=O)(=O)c1ccc(Br)cc1 [CBK305543] | 103.506%
30 | Cc1c(CNC(=O)c2cc(-c3ccncc3)nc3ccc(Cl)cc23)cnn1C [CBK288627] | 111.292%
31 | N#CCCn1cc(C(=O)N2CCOCC2)c(-c2ccccc2)n1 [CBK306207] | 140.022%
32 | CNS(=O)(=O)c1cccc(C(C)NC(=O)N2CCC2)c1 (stereo not drawn) [CBK306257] | 167.944%
33 | Oc1ccc(Br)cc1/C=N/c1ccc(-c2cc(-c3ccc(/N=C/c4cc(Br)ccc4O)cc3)ncn2)cc1 [CBK261630] | 109.173%
34 | Fc1ccc(-n2cc(-c3cccnc3)nn2)cc1F [CBK113055] | 129.905%
35 | Cn1nc(-c2ccc(Cl)cc2)cc1NC(=O)Cn1nnc(-c2ccc(F)cc2)n1 [CBK295203] | 144.228%
36 | COc1ccc(CNC(=O)NC(=O)C2CCN(CCCc3ccc4c(c3)OCO4)CC2)c(OC)c1 [CBK034875] | 102.349%
37 | Cn1nccc1CNCc1c(Br)cc(F)c(F)c1N1CCCCC1 [CBK306284] | 112.21%
38 | Nc1ncc(-c2ccncc2)nc1NCC1CCOCC1 [CBK063816] | 170.139%
39 | Cc1ccc(S(=O)(=O)N2CCN(CC(O)COc3ccc4ccccc4c3Cl)CC2)c(C)c1 (stereo not drawn) [CBK266563] | 126.944%
40 | Cc1nc(C)c(C(=O)NC2Cc3ccccc3C2)s1 [CBK200357] | 104.086%
41 | Cc1nn(-c2nc3ccccc3s2)c(O)c1C [CBK270254] | 135.22%
42 | CN(Cc1cn(-c2ccccc2)nc1-c1ccccc1)C(=O)CCc1n[nH]c(=S)[nH]c1=O [CBK295630] | 142.548%
43 | COCCNc1nccnc1-c1ccccc1CO [CBK038010] | 101.636%
44 | Cc1nc(C(Cc2ccsc2)NC(=O)C(C)(C)N)sc1C (stereo not drawn) [CBK284775] | 156.353%
45 | OC1CCN(c2ccc(-c3ccccc3)nn2)CC1 [CBK021753] | 112.516%
46 | COc1ccc(CC(=O)O)cc1S(=O)(=O)Nc1ccc(SC)cc1 [CBK298315] | 117.424%
47 | CC(=O)N1CCCC[C@H]2[C@H]1C[C@@H](c1ccccc1)N2C(=O)CN1CCCCCC1 [CBK286120] | 92.0803%
48 | FC(F)(F)c1nc2ccccc2nc1OC1CCOC1 (stereo not drawn) [CBK115806] | 97.6751%
49 | CCOc1cc(OCC)cc(C(=O)N2CCCC3(CC(=O)c4ccc(C)cc4O3)C2)c1 (stereo not drawn) [CBK168067] | 103.214%
50 | Cc1c(C(N)=O)sc(NC(=O)c2cccnc2)c1C#N [CBK268163] | 103.009%
51 | O=C(c1cnc2ccccc2n1)N1CCc2ccccc21 [CBK200267] | 122.808%
52 | COc1cc(-c2cncc(NCCCO)n2)cc(OC)c1OC [CBK065271] | 171.872%

In a second layout: results already given.
Cn1nccc1CNCc1c(Br)cc(F)c(F)c1N1CCCCC1 [CBK306284]
  % of control remaining: 112.21%
Nc1ncc(-c2ccncc2)nc1NCC1CCOCC1 [CBK063816]
  % of control remaining: 170.139%
Cc1ccc(S(=O)(=O)N2CCN(CC(O)COc3ccc4ccccc4c3Cl)CC2)c(C)c1 (stereo not drawn) [CBK266563]
  % of control remaining: 126.944%
Cc1nc(C)c(C(=O)NC2Cc3ccccc3C2)s1 [CBK200357]
  % of control remaining: 104.086%

Additional compounds follow:

Row | Structure (SMILES) | % of control remaining
53 | O=C(Nc1cc(N2CCNCC2)c2occc2c1)c1cccc(C(F)(F)F)c1 [CBK061762C] | 73.769%
54 | CN1C(=O)c2cccc3c(S(=O)(=O)N4CCN(S(=O)(=O)c5ccc6c7c(cccc57)C(=O)N6C)CC4)ccc1c23 [CBK269140] | 152.545%
55 | O=C(NC(c1ccccc1)c1ccco1)C1CCN(C(=O)c2cccs2)CC1 (stereo not drawn) [CBK059854] | 110.022%
56 | Cc1cccc(C(=O)Nc2ccccc2C(=O)Nc2cccc(C(=O)O)c2C)c1 [CBK265911] | 113.868%
57 | Cc1ccccc1OCC(=O)Nc1c(C)n[nH]c1C [CBK266046C] | 119.918%
58 | CN(CC(=O)NCc1ccccn1)S(=O)(=O)c1ccc(Br)cc1 [CBK265127] | 132.028%
59 | CCOC(=O)C1(Cc2ccc(F)cc2F)CCCN(S(=O)(=O)CC)C1 (stereo not drawn) [CBK307655] | 124.648%
60 | NCc1ccc(-c2nc3ccccc3[nH]2)nc1 [CBK024396C] | 93.8528%
61 | N#Cc1ccc(CSc2ncccc2C(=O)O)cc1 [CBK287187] | 135.62%
62 | Cc1cc(C)c2nc(-c3ccccn3)cc(C(=O)NCc3cccs3)c2c1 [CBK267772] | 129.786%
63 | Cn1c(Sc2ccc(C(=O)O)cc2[N+](=O)[O-])nnc1-c1ccccc1 [CBK265047] | 124.1%
64 | O=c1[nH]c(=O)c2cc(S(=O)(=O)Nc3ccc(Oc4cccnc4)cc3)ccc2[nH]1 [CBK286386] | 131.33%
65 | O=S(=O)(NCC(Nc1cccc2ccccc12)c1ccccc1)c1ccc(Cl)cc1 (stereo not drawn) [CBK264087] | 68.0384%
66 | O=C(CN(Cc1ccccc1)S(=O)(=O)c1cc(Cl)ccc1Cl)Nc1cccc(F)c1 [CBK264664] | 134.724%
67 | CC(=O)c1ccc(C(=O)Nc2nc3c(s2)COc2ccccc2-3)cc1 [CBK287363] | 134.676%
68 | NC(=O)CO[C@@H]1CO[C@H]2[C@@H]1OC[C@@H]2NCc1ccccc1 [CBK289479] | 95.2245%
69 | O=c1[nH]nc2c3ccc(Cl)cc3ncn12 [CBK283988] | 110.571%
70 | CNC(=O)c1nn(CCCc2ccc(OC)cc2)c2ccccc12 [CBK105842] | 67.4073%
71 | CCc1cnc(CN(C)C2CCN(Cc3cccc(C(N)=O)c3)C2)o1 (stereo not drawn) [CBK305357] | 142.988%
72 | Cc1ccc2nc(NC(=O)COc3ccccc3)sc2c1 [CBK287335] | 146.507%
73 | COc1cc([C@@]23CC[C@@H](NC(=O)Nc4cc(F)ccc4F)C[C@@H]2N(C)CC3)ccc1OC(F)F [CBK073834] | 75.4762%
74 | Cc1cc2ccccc2n2c(=O)n(CC(=O)N3CCCC3)nc12 [CBK283880] | 114.272%
75 | CCOc1ccc(N(Cc2cc3cc(C)ccc3nc2O)C(=O)c2ccccc2OC)cc1 [CBK265427] | 100%
76 | COc1cc(-c2nnc(NC(C)=O)o2)cc(OC)c1OC [CBK287698] | 97.3232%
77 | CC(=O)Nc1ccc(Oc2c(F)c(F)c(/C=C/CN3CCOCC3)c(F)c2F)cc1 [CBK269302C] | 136.69%
78 | Cn1ccnc1C1(O)CC2CCC(C1)N2C(=O)c1ccc(F)cc1 (stereo not drawn) [CBK284086] | 117.858%

Ordered by molecular weight (descending): part of the list above
Row | Structure (SMILES) | % of control remaining
36 | COc1ccc(CNC(=O)NC(=O)C2CCN(CCCc3ccc4c(c3)OCO4)CC2)c(OC)c1 [CBK034875] | 102.349%
65 | O=S(=O)(NCC(Nc1cccc2ccccc12)c1ccccc1)c1ccc(Cl)cc1 (stereo not drawn) [CBK264087] | 68.0384%
21 | COC(=O)c1cc(OC)c(OC)cc1NC(=S)N1CCC(C(N)=O)CC1 [CBK268507] | 140.047%
